# ± gives the standard deviation of the averaged measurements. Some of the results follow.
# Sequences of proteins named here, by UniProt entry; tags and fusion partners are left off. A change or cut given only in a name is not applied to a line headed by its entry.
# UniProt P07195, whole entry, looked up: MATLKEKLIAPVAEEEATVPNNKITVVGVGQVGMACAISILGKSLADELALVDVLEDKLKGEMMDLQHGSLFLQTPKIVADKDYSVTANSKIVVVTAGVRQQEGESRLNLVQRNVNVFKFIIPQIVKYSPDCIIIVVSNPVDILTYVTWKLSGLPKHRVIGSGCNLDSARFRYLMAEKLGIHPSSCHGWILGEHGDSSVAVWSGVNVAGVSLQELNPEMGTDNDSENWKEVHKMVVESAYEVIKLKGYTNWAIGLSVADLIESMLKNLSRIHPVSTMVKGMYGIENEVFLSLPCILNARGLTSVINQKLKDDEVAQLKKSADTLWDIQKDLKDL
# UniProt P13612, whole entry: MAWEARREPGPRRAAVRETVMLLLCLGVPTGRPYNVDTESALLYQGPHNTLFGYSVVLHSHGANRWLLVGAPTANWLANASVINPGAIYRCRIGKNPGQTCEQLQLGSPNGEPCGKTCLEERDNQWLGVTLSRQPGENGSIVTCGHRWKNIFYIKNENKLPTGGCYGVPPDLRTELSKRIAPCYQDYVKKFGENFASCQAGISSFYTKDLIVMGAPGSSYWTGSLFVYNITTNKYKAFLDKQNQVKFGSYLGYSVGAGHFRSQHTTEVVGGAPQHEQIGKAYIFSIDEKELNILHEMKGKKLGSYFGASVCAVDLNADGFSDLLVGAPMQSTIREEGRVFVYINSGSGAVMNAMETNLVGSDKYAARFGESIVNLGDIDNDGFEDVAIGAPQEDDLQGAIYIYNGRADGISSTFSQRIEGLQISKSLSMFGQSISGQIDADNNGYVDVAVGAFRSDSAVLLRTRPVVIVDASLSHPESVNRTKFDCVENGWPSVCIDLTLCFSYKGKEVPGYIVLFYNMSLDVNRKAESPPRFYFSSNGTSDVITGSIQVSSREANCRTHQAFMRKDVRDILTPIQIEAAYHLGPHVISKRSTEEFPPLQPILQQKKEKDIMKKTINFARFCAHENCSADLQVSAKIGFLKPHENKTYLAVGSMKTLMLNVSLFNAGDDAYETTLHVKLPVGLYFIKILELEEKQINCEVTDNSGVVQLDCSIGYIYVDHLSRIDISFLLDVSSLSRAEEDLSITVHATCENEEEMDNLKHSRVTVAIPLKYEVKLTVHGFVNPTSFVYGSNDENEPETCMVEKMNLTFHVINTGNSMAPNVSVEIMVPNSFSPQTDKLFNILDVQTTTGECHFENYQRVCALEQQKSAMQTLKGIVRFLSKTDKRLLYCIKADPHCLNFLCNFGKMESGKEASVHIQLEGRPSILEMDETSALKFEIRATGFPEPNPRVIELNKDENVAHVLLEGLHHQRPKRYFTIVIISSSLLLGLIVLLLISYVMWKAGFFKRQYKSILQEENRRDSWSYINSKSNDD
# UniProt P25685, whole entry: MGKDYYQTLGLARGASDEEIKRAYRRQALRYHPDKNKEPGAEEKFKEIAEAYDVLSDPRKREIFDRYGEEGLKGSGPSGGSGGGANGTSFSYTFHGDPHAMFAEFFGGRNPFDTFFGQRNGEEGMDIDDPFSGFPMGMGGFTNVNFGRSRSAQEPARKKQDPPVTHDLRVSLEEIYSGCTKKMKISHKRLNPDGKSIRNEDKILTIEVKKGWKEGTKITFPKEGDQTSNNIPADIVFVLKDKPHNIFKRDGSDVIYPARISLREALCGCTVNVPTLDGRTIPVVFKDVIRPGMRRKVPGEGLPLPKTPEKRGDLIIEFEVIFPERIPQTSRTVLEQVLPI
# UniProt P10746: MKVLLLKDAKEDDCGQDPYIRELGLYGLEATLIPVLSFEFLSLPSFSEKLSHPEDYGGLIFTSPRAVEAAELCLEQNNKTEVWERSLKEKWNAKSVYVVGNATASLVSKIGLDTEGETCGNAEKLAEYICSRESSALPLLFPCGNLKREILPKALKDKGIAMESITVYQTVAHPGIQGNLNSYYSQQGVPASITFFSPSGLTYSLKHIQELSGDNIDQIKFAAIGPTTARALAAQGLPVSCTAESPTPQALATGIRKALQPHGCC
# UniProt P13716: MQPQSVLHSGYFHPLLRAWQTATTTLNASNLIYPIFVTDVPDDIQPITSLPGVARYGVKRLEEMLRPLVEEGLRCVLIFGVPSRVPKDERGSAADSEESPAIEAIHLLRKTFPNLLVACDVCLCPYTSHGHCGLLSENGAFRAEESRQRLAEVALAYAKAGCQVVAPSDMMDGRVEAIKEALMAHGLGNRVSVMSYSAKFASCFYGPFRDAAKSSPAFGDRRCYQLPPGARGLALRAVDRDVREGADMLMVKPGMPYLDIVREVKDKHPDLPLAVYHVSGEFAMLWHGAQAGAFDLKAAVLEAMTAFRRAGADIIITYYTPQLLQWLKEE
# UniProt P13984, whole entry: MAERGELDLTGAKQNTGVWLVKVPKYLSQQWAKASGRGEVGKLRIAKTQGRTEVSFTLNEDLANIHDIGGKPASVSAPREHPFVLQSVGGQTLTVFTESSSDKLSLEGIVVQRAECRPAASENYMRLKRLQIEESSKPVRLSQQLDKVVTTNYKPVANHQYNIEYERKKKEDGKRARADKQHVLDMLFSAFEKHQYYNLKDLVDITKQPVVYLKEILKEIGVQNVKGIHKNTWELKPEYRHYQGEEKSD
# UniProt P22314: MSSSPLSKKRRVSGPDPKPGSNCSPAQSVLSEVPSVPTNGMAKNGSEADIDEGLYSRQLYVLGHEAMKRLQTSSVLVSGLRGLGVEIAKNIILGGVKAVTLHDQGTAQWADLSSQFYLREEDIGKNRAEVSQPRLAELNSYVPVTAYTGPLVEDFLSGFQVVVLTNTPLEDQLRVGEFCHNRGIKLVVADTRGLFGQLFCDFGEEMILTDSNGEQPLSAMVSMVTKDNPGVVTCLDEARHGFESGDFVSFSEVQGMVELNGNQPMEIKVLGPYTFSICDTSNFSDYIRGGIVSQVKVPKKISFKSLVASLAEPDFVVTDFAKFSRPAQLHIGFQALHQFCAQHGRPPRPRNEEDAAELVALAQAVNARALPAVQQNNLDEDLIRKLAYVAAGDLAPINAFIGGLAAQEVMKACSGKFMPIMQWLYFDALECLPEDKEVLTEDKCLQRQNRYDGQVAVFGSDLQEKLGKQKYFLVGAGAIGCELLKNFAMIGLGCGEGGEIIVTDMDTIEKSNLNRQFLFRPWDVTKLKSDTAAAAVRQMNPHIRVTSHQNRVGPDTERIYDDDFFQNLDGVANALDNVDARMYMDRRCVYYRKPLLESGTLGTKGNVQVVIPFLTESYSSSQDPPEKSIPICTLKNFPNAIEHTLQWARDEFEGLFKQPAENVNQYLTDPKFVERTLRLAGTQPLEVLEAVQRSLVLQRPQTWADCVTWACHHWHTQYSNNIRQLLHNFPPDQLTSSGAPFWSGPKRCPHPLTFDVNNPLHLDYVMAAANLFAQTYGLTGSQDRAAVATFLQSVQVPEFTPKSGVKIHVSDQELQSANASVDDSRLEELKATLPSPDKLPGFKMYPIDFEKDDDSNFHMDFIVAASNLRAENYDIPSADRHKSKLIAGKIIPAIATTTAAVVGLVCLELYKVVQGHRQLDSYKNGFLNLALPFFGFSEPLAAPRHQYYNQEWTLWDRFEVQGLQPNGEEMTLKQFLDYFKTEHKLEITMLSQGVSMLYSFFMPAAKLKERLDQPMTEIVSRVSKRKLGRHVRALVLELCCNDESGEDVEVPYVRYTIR
# UniProt P09874, whole entry: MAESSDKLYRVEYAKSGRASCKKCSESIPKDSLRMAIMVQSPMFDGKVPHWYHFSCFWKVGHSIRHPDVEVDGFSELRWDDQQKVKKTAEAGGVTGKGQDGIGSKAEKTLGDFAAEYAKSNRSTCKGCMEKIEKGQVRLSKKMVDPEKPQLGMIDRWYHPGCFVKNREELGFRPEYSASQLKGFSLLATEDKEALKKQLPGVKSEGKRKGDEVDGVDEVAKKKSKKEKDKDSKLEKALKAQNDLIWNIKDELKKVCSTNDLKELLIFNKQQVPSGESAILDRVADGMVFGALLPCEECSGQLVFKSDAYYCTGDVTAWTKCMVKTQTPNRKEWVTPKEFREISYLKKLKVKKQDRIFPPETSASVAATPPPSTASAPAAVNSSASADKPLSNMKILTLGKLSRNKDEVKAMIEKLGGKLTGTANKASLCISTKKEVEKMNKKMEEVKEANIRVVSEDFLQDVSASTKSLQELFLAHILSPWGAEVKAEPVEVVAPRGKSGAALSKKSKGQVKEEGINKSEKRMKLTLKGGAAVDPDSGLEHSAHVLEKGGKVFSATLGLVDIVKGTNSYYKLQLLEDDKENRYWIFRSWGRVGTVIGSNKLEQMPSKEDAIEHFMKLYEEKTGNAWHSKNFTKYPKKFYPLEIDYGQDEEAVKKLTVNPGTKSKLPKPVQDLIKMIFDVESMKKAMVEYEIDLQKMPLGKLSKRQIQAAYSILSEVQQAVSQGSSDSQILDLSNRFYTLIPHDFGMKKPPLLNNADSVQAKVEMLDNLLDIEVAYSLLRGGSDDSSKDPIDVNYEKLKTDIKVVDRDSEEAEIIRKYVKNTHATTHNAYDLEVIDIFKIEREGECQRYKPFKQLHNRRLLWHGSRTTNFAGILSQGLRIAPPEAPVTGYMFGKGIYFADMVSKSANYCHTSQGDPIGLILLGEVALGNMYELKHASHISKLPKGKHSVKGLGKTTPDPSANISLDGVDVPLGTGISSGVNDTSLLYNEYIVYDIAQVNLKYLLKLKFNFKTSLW
# UniProt P23246: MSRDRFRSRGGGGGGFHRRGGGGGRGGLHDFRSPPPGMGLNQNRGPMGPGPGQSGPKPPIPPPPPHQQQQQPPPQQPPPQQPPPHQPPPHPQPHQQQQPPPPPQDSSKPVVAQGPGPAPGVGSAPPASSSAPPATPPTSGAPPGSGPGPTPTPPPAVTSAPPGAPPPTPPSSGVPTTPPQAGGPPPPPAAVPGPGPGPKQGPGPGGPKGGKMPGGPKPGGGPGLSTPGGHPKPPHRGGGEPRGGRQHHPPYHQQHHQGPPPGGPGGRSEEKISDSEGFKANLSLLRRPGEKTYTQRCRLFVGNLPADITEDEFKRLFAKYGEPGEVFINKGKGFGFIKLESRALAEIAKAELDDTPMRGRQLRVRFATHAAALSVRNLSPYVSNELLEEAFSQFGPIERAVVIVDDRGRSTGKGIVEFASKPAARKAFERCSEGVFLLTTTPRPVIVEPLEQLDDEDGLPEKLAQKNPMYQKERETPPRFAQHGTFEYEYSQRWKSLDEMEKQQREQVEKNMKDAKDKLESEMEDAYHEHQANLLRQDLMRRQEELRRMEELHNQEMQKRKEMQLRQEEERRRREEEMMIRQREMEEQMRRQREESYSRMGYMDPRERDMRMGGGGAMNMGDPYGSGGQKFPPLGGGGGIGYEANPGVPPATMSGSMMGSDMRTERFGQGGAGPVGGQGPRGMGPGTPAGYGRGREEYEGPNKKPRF
# UniProt P14621: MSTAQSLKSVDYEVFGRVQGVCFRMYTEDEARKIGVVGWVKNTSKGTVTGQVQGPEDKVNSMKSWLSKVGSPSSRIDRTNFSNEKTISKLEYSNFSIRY
# UniProt P08238, whole entry: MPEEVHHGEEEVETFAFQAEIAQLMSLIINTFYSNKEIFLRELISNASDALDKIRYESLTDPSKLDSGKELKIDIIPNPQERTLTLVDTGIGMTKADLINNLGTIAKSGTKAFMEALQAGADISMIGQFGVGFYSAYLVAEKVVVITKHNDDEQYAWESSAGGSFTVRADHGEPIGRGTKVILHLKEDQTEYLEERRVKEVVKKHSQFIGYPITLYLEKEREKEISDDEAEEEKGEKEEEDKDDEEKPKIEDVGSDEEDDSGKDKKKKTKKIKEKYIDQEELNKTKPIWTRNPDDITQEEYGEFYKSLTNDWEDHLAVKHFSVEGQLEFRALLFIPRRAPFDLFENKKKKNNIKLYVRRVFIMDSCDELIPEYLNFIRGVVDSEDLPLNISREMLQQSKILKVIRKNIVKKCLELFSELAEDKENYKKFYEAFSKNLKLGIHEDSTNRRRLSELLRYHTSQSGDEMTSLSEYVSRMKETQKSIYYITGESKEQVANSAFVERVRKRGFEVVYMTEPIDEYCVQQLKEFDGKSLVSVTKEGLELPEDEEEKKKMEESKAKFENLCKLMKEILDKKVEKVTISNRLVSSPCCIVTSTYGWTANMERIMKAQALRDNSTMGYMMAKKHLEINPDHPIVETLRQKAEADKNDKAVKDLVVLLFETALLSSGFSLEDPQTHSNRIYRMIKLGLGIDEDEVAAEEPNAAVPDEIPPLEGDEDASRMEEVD
# UniProt P26641, whole entry: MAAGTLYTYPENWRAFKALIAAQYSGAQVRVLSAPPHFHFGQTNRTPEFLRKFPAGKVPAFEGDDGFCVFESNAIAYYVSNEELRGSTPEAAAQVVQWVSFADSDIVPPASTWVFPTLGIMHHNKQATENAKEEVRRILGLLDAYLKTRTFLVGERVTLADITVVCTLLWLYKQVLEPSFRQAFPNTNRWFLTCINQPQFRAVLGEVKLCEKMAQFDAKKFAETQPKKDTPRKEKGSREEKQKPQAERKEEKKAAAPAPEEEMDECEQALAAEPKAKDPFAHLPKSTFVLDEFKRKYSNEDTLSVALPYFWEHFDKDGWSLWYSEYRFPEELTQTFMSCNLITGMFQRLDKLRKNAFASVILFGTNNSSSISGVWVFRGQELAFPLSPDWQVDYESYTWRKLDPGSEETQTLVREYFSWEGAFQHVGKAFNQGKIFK
# Compound: Nc1nc2c(ncn2[C@@H]2O[C@H](COP(=O)(O)OP(=O)(O)OP(=O)(O)O)[C@@H](O)[C@H]2O)c(=O)[nH]1 [guanosine triphosphate]
# Assay: NP40-soluble protein abundance relative to vehicle (solubility fold change) (ratio); higher = more soluble protein in presence of GTP
# Summary of the method: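 Each value is a fold change relative to the detergent-processed vehicle, calculated per replicate from vsn-normalised intensities. Jurkat crude lysate received eight concentrations (0.1 to 10 mM) for 10 min at room temperature and 3 min at 37 °C, then was solubilised in 0.8% NP40 with benzonase (60 min, 4 °C). The ultracentrifuged supernatant was TMT-labelled and run by LC-MS/MS in three independent experiments.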
Target,NP40-soluble protein abundance (concentration: 0.1mM),NP40-soluble protein abundance (concentration: 0.5mM),NP40-soluble protein abundance (concentration: 1mM),NP40-soluble protein abundance (concentration: 2mM),NP40-soluble protein abundance (concentration: 4mM),NP40-soluble protein abundance (concentration: 6mM),NP40-soluble protein abundance (concentration: 8mM),NP40-soluble protein abundance (concentration: 10mM)
UniProt P15923-2|P15923 and related entries,0.914 ± 0.035,0.937 ± 0.066,0.979 ± 0.045,0.935 ± 0.085,0.914 ± 0.12,0.943 ± 0.1,0.955 ± 0.053,0.972 ± 0.082
LDHB (UniProt P07195),0.965 ± 0.028,0.983 ± 0.013,0.942 ± 0.032,0.887 ± 0.021,0.876 ± 0.04,0.892 ± 0.015,0.876 ± 0.028,0.856 ± 0.042
UniProt P14859 and related entries,1.01 ± 0.12,0.91 ± 0.12,1.01 ± 0.14,1.04 ± 0.24,1.02 ± 0.28,1.03 ± 0.26,1.01 ± 0.26,1.04 ± 0.2
GM2A (UniProt P17900),0.851 ± 0.015,0.931 ± 0.022,0.876 ± 0.013,0.923 ± 0.1,0.853 ± 0.042,0.859 ± 0.013,0.856 ± 0.12,0.927 ± 0.067
COX6B1 (UniProt P14854),1.03 ± 0.11,0.994 ± 0.059,1.01 ± 0.097,1.06 ± 0.11,1.03 ± 0.15,1.02 ± 0.091,1.03 ± 0.045,1.17 ± 0.087
ITGA4 (UniProt P13612),0.943 ± 0.059,0.939 ± 0.059,0.943 ± 0.051,0.941 ± 0.073,0.928 ± 0.073,0.933 ± 0.051,0.922 ± 0.048,0.948 ± 0.1
UniProt P25685 and related entries,0.959 ± 0.024,0.966 ± 0.028,0.929 ± 0.039,0.887 ± 0.048,0.871 ± 0.047,0.896 ± 0.053,0.906 ± 0.034,0.876 ± 0.05
UROS (UniProt P10746),0.991 ± 0.06,0.98 ± 0.032,0.986 ± 0.038,0.963 ± 0.086,0.939 ± 0.13,0.941 ± 0.13,0.94 ± 0.083,0.935 ± 0.1
PRKAR1A (UniProt P10644),0.921 ± 0.039,0.968 ± 0.031,0.944 ± 0.052,0.929 ± 0.062,0.953 ± 0.071,0.935 ± 0.079,0.975 ± 0.098,0.934 ± 0.088
UniProt P20226 and related entries,1.14 ± 0.12,1.03 ± 0.043,1.05 ± 0.082,1.01 ± 0.05,1.12 ± 0.21,1.02 ± 0.067,1.07 ± 0.1,1.05 ± 0.028
QDPR (UniProt P09417),1.04 ± 0.11,0.961 ± 0.11,0.973 ± 0.1,0.951 ± 0.068,0.998 ± 0.09,0.906 ± 0.092,0.909 ± 0.1,0.937 ± 0.099
UniProt P13716 and related entries,1.03 ± 0.018,1.03 ± 0.024,0.995 ± 0.049,0.999 ± 0.032,1.03 ± 0.022,0.964 ± 0.022,0.992 ± 0.044,0.991 ± 0.043
GTF2F2 (UniProt P13984),0.962 ± 0.057,0.98 ± 0.033,0.961 ± 0.032,0.951 ± 0.028,0.95 ± 0.026,0.961 ± 0.022,0.963 ± 0.044,0.951 ± 0.045
SLC2A1 (UniProt P11166),0.925 ± 0.04,0.895 ± 0.024,0.918 ± 0.016,0.94014 ± 0.00094,0.933 ± 0.031,0.917 ± 0.021,0.894 ± 0.033,0.883 ± 0.01
UniProt P22314 and related entries,0.963 ± 0.021,0.996 ± 0.022,0.913 ± 0.024,0.9054 ± 0.0072,0.893 ± 0.013,0.891 ± 0.015,0.862 ± 0.035,0.863 ± 0.035
PARP1 (UniProt P09874),1.02 ± 0.026,1.05 ± 0.034,1.05 ± 0.033,1.15 ± 0.052,1.31 ± 0.069,1.43 ± 0.054,1.47 ± 0.043,1.5 ± 0.028
UniProt P22681 and related entries,1.012 ± 0.0049,1.01 ± 0.039,0.973 ± 0.027,0.971 ± 0.014,0.94 ± 0.019,0.935 ± 0.01,0.942 ± 0.032,0.934 ± 0.02
TRIM21 (UniProt P19474),1.02 ± 0.022,0.992 ± 0.043,0.926 ± 0.023,0.908 ± 0.027,0.914 ± 0.034,0.918 ± 0.04,0.909 ± 0.012,0.829 ± 0.048
ME2 (UniProt P23368),1.06 ± 0.083,1.07 ± 0.12,0.915 ± 0.057,0.98 ± 0.14,0.966 ± 0.096,0.931 ± 0.11,0.865 ± 0.013,0.827 ± 0.079
RPL13 (UniProt P26373),0.952 ± 0.062,1.05 ± 0.043,1.1 ± 0.13,1.03 ± 0.16,0.937 ± 0.25,0.925 ± 0.23,0.797 ± 0.22,0.962 ± 0.26
CYC1 (UniProt P08574),1.01 ± 0.039,1.02 ± 0.036,0.995 ± 0.022,1.01 ± 0.041,0.961 ± 0.068,0.957 ± 0.035,0.947 ± 0.037,0.918 ± 0.038
AKR1B1 (UniProt P15121),0.984 ± 0.019,1 ± 0.026,0.89 ± 0.037,0.87 ± 0.044,0.846 ± 0.058,0.855 ± 0.042,0.814 ± 0.083,0.769 ± 0.1
UniProt P09497-2,1.09 ± 0.093,1.05 ± 0.046,1.14 ± 0.052,1.04 ± 0.075,1.06 ± 0.013,1.04 ± 0.036,1.13 ± 0.076,1.09 ± 0.047
LAMP1 (UniProt P11279),0.896 ± 0.081,0.879 ± 0.077,0.954 ± 0.028,0.885 ± 0.1,0.881 ± 0.11,0.904 ± 0.094,0.918 ± 0.062,0.885 ± 0.071
SFPQ (UniProt P23246),0.998 ± 0.053,0.989 ± 0.086,1.03 ± 0.13,1.23 ± 0.14,1.61 ± 0.22,1.85 ± 0.28,2 ± 0.35,2.04 ± 0.36
NDUFB7 (UniProt P17568),1.07 ± 0.17,1.15 ± 0.12,1.16 ± 0.14,1.19 ± 0.17,1.3 ± 0.28,1.47 ± 0.26,1.54 ± 0.056,1.72 ± 0.34
EPRS (UniProt P07814),1.06 ± 0.093,1.14 ± 0.16,1.14 ± 0.19,1.22 ± 0.25,1.24 ± 0.26,1.27 ± 0.3,1.26 ± 0.29,1.19 ± 0.28
UniProt P14621 and related entries,1.03 ± 0.15,1 ± 0.11,1.08 ± 0.21,0.996 ± 0.19,0.991 ± 0.24,0.965 ± 0.22,0.989 ± 0.19,1.02 ± 0.15
HSP90AB1 (UniProt P08238),0.939 ± 0.065,0.968 ± 0.071,0.879 ± 0.086,0.887 ± 0.064,0.898 ± 0.068,0.858 ± 0.076,0.827 ± 0.092,0.846 ± 0.05
UniProt P26641 and related entries,1.01 ± 0.046,1.08 ± 0.055,1.03 ± 0.06,1 ± 0.07,1 ± 0.045,1.03 ± 0.08,1.02 ± 0.082,0.969 ± 0.081

# Exported tab-delimited: part of the list above.
Target	NP40-soluble protein abundance (concentration: 0.1mM)	NP40-soluble protein abundance (concentration: 0.5mM)	NP40-soluble protein abundance (concentration: 1mM)	NP40-soluble protein abundance (concentration: 2mM)	NP40-soluble protein abundance (concentration: 4mM)	NP40-soluble protein abundance (concentration: 6mM)	NP40-soluble protein abundance (concentration: 8mM)	NP40-soluble protein abundance (concentration: 10mM)
UniProt P14621 and related entries	1.03 ± 0.15	1 ± 0.11	1.08 ± 0.21	0.996 ± 0.19	0.991 ± 0.24	0.965 ± 0.22	0.989 ± 0.19	1.02 ± 0.15
HSP90AB1 (UniProt P08238)	0.939 ± 0.065	0.968 ± 0.071	0.879 ± 0.086	0.887 ± 0.064	0.898 ± 0.068	0.858 ± 0.076	0.827 ± 0.092	0.846 ± 0.05
